The chains behind the UniProt entries cited, without tags or fusion partners. Where a name states a change or a piece, a line headed by the entry shows the natural chain unless it says otherwise.
UniProt P51450: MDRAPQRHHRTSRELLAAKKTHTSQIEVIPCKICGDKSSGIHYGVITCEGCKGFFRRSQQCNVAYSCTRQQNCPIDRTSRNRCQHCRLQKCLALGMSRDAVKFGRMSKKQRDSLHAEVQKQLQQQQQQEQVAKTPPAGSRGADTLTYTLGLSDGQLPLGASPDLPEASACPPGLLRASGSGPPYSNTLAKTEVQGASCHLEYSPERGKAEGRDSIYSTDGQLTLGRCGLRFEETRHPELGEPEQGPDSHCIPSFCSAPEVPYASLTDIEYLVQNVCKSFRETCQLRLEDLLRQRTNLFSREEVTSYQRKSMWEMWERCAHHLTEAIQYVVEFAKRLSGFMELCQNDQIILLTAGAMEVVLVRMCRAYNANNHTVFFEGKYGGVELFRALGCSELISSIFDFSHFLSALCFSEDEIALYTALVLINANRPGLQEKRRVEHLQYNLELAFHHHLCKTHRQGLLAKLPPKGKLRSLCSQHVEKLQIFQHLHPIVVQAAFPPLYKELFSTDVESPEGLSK

The whole screen tested about 310,000 compounds, of which about 17,000 (5.5%) were called active. Inconclusive results, whose numbers are uncertain, are shown with a selection of clear calls. Calls come from the whole dose curve; as a rule, active = well fitted inhibition curve with a large enough effect; inconclusive = small, poorly fitted or top-dose-only effect, or effect the other way; inactive = no such curve, though single readings can be large or run the other way. Potencies of inconclusive entries are doubtful fits and often do not repeat.
The compounds below were run against Nuclear receptor ROR-gamma (Mus musculus) (UniProt P51450) (assay: qHTS for inhibitors of ROR gamma transcriptional activity). Details: Drosophila S2 Gal4-RORgamma UAS-luciferase reporter, 20 h; activity change, negative = inhibition: at 53.6 µM (top of the series).
In short: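 Luminescence from a UAS-regulated Photinus luciferase reporter in stably transfected Drosophila Schneider cells is measured; decreased signal marks ROR gamma inhibition. Fusion expression is induced by 700 uM copper sulfate for 20 hr.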
In the case of `CNC(=S)N/N=C/c1cccc(OCc2ccccc2F)c1`, the Potency is reported as active: 2.24 µM. For `Cc1ccc(NC(=O)CSc2ncnc3ccccc23)cc1S(=O)(=O)N1CCCCC1`, the Potency was inconclusive: 14.1 µM [activator, single point]. In the case of `COc1ccc(C(=O)Nc2sc(C)c(-c3ccccc3)c2C#N)cc1OC`, the “activity change, negative = inhibition” value is reported as inactive: -17.5%. In the case of `CCCCCC(=O)Nc1ccc2ccccc2c1`, the “activity change, negative = inhibition” value is reported as inactive: -6.14%. In the case of `Cc1cc(/C=C(\C#N)C(=O)NCC2CCCO2)c(C)n1-c1ccc(Cl)cc1` (stereo not given), the Potency is reported as inconclusive: 7.08 µM [activator, partial curve]. With `N=C1/C(=C\c2ccc(OC(=O)c3ccco3)cc2)C(=O)N=C2SC(N3CCCCC3)=NN12` the Potency was inconclusive: 35.5 µM [inhibitor, single point]. For `N#Cc1nc(Cc2ccccc2)oc1NCc1cccnc1`, the Potency was inconclusive: 5.62 µM [activator, partial curve, poor fit]. For `N#CCCN(C(=O)COC(=O)c1ccc(S(=O)(=O)Nc2ccccc2)cc1)c1ccccc1`, the Potency was inconclusive: 35.5 µM [activator, single point]. In the case of `Cc1ccc(CCSc2ccc(C(C)C)cc2)cn1`, the Potency is reported as inconclusive: 35.5 µM [activator, single point]. `CCN(CC)CCNC(=O)c1ccc(N2CCCCC2)c(NS(=O)(=O)c2ccc(C)cc2)c1` was tested, and the “activity change, negative = inhibition” value was inactive: -43.5%. With `CCn1c(COc2ccccc2)nnc1SCC(=O)Nc1cc(OC)ccc1OC` the Potency was inconclusive: 14.1 µM [activator, partial curve]. In the case of `O=[N+]([O-])c1ccc(-c2ccc(/C=N/Nc3nc(NCc4ccccc4)nc(N4CCOCC4)n3)o2)cc1`, the Potency is reported as active: 12.6 µM. In the case of `COc1ccc(CN2CCCC(C(=O)Nc3cccc(-n4cccn4)c3)C2)c(F)c1` (stereo not given), the “activity change, negative = inhibition” value is reported as inactive: -9.17%. In the case of `COCCCNC(=S)NNC(=O)c1ccccn1`, the Potency is reported as active: 14.1 µM. In the case of `COc1cc2c(cc1OC)C(C)N(C(=S)NC(=O)c1ccccc1)CC2` (stereo not given), the Potency is reported as active: 1.26 µM. With `CCCCC(=O)Nc1ccc(NC(=S)NC(=O)c2cccs2)cc1OC` the Potency was active: 10 µM. For `Cc1cccc(C(=O)NC(=S)Nc2ccc(S(=O)(=O)N(C)c3ccccc3)cc2)c1`, the Potency was active: 11.2 µM. `Cc1c(N/N=C(\C#N)C(=O)c2ccccc2)c(=O)n(-c2ccccc2)n1C` was tested, and the Potency was active: 15.8 µM. With `CCC(=O)Nc1ccc2c(c1)nc(CCN1CCCCC1)n2C` the Potency was inconclusive: 35.5 µM [activator, single point]. `Cc1oc2c(c1C(=O)N1CCOCC1)C(=O)c1ccccc1C2=O` was tested, and the Potency was active: 3.98 µM. In the case of `S=c1[nH]nc(CCc2ccccc2)n1-c1ccccc1`, the Potency is reported as active: 5.62 µM. With `CCN(CC)c1ccc(NC(=O)c2cnccn2)cc1S(=O)(=O)Nc1ccc(OC)cc1` the Potency was inconclusive: 20 µM [activator, single point]. For `Cc1cnc(CNc2ncncc2-c2ccc(N(C)C)cc2)cn1`, the “activity change, negative = inhibition” value was inactive: 22.7%. In the case of `c1ccc(C(c2nnnn2Cc2ccco2)N2CCN(c3nc4ccccc4s3)CC2)cc1` (stereo not given), the Potency is reported as inconclusive: 2.82 µM [activator, partial curve]. With `COc1ccc(N(C(=O)Cn2nnc3ccccc32)C(C(=O)NC(C)(C)C)c2ccc(OC)c(O)c2)cc1` (stereo not given) the Potency was inconclusive: 22.4 µM [activator, single point]. In the case of `O=C(NCC(=O)N1CCN(c2ncc(C(F)(F)F)cc2Cl)CC1)c1ccc(Br)o1`, the Potency is reported as inconclusive: 10 µM [activator, partial curve]. For `O=C(CCOc1ccccc1)Nc1cccc(S(=O)(=O)Nc2ccccc2Cl)c1`, the Potency was inconclusive: 25.1 µM [activator, single point]. `O=C(CSc1nc(-c2ccccc2)c(-c2ccccc2)[nH]1)Nc1ccc2c(c1)OCO2` was tested, and the Potency was inconclusive: 22.4 µM [inhibitor, single point]. In the case of `CC1(C)C2(Cl)C(Cl)C(Cl)C(Cl)(C(Cl)Cl)C1(Cl)C2Cl` (stereo not given), the “activity change, negative = inhibition” value is reported as inactive: -13%. In the case of `S=C(NCCc1ccccc1)NCCc1ccccc1`, the Potency is reported as active: 7.08 µM. For `CCC[C@@H](CN[C@@H](CNC)[C@H](C)CC)NCC1CCC(C(C)(C)C)CC1` (stereo not given in full), the Potency was active: 11.2 µM. With `Cc1ccc(CNC(=O)c2nnn(-c3cccc(C)c3)c2N)cc1` the Potency was inconclusive: 7.08 µM [activator, partial curve]. In the case of `NCCC(=O)N1c2ccccc2Sc2ccc(Cl)cc21`, the Potency is reported as inconclusive: 35.5 µM [inhibitor, single point]. For `O=C(C1=C(O)C(=O)N(CCc2ccccc2)C1c1cccs1)c1ccco1` (stereo not given), the “activity change, negative = inhibition” value was inactive: -1.99%. With `Nc1nnnn1/N=C/c1ccc(N2CCCCC2)c([N+](=O)[O-])c1` the Potency was inconclusive: 17.8 µM [activator, partial curve]. `CCc1ccc(OCC(=O)NC2CCCCC2)c(Br)c1` was tested, and the Potency was active: 2.82 µM. For `Cc1cc(OCCCn2cnc3ccccc3c2=O)ccc1[N+](=O)[O-]`, the Potency was inconclusive: 12.6 µM [activator, partial curve]. With `COc1cccc(CSc2nc3cc4c(cc3cc2C)OCCO4)c1` the “activity change, negative = inhibition” value was inactive: 2.33%. With `Cc1cccc(N2C(=O)C3CCC(c4ccccc4)CC3C2=O)c1` (stereo not given) the Potency was inconclusive: 12.6 µM [activator, single point]. With `Cc1ccc(-c2nn(-c3ccccc3)cc2CN(Cc2ccccc2)C(=O)CCC(=O)O)o1` the Potency was inconclusive: 35.5 µM [inhibitor, single point]. `O=C(NC(=S)Nc1ccc(N2CCOCC2)c(Cl)c1)c1cccs1` was tested, and the Potency was inconclusive: 3.98 µM [inhibitor, full curve, poor fit]. `CCOc1ccc(/C=N/NC(=O)c2cc(-c3ccco3)nc3ccccc23)cc1` was tested, and the Potency was inconclusive: 35.5 µM [inhibitor, single point]. `CC1=CC(C)(C)N2C(=O)C3(C(C#N)=C(N)Oc4cc(O)ccc43)c3c(C)c(C)cc1c32` (stereo not given) was tested, and the Potency was active: 2.82 µM. With `N#Cc1cnn(-c2nc3sc4c(c3c(=O)[nH]2)CCCC4)c1N` the Potency was active: 2.82 µM. With `CCOc1ccc(OCc2ccc(C(=O)N3CCCC(C)C3)cc2)cc1` (stereo not given) the Potency was inconclusive: 0.0501 µM [inhibitor, full curve, poor fit]. With `Cc1ccc(S(=O)(=O)/N=C/c2c(O)ccc3ccccc23)cc1` the Potency was active: 17.8 µM. With `COc1ccc(C(=O)Oc2cccc(/C=N/NC(N)=S)c2)cc1` the Potency was active: 15.8 µM. `O=Nc1c(O)[nH]c2c(Cl)c(Cl)ccc12` was tested, and the “activity change, negative = inhibition” value was inactive: -29.8%. For `CC(=O)OC1CC(OC(C)=O)[C@]2(C)C(CC(OC(C)=O)[C@]3(C)C2CC[C@@]2(C)C(c4ccoc4)OC(=O)C4O[C@]432)C1(C)C` (stereo not given in full), the Potency was inconclusive: 0.631 µM [activator, single point]. In the case of `C=CCC(C)(NCc1ccccc1)c1ccccc1` (stereo not given), the “activity change, negative = inhibition” value is reported as inactive: -36.6%. In the case of `COCCN(Cc1cc2cc(C)c(C)cc2nc1Cl)C(=O)Nc1ccccc1`, the “activity change, negative = inhibition” value is reported as inactive: 8.67%. In the case of `CCC(=O)Nc1ccc(-c2ccc(N3CCC(C)CC3)nn2)cc1`, the Potency is reported as active: 3.55 µM. With `COC(=O)CC(NC(=O)c1ccc(C)cc1)c1ccccc1` (stereo not given) the Potency was active: 8.91 µM. `COc1ccc(O)c(/C=N/NC(=S)NCCc2ccccc2)c1` was tested, and the Potency was active: 3.16 µM. In the case of `O=C(NNc1c2ccccc2nc2ccccc12)c1ccccc1Cl`, the “activity change, negative = inhibition” value is reported as inactive: -21.3%. In the case of `CCCCCCCCCCCCCCCCn1cc[n+](Cc2ccccc2)c1C`, the Potency is reported as inconclusive: 5.01 µM [activator, single point]. In the case of `CC(C)c1ccc(CN2CCN(C(=O)CCl)CC2)cc1`, the “activity change, negative = inhibition” value is reported as inactive: 5.18%. With `Cc1ccc(SCCNC(=O)c2cccc([N+](=O)[O-])c2C)cc1` the Potency was inconclusive: 12.6 µM [activator, single point]. `CN1C(=O)c2ccc(NC(=O)c3ccc(Cl)cc3Cl)cc2C1=O` was tested, and the Potency was inconclusive: 7.94 µM [activator, partial curve]. `CC(=O)Nc1ccc(NC2=CC(=O)c3ccccc3C2=O)cc1` was tested, and the “activity change, negative = inhibition” value was inactive: -33.2%. For `COc1cccc(C2CC(c3ccc(Cl)cc3Cl)n3nc(N)nc3N2)c1` (stereo not given), the Potency was inconclusive: 22.4 µM [inhibitor, single point]. For `C=CCSc1nnc2n(CCc3ccccc3)c(=O)c3c4c(sc3n12)COC(C)(C)C4`, the “activity change, negative = inhibition” value was inactive: -17%. `COc1ccc(C2C(C#N)=C(N)N(c3sc4c(c3C#N)CCCC4)C3=C2C(=O)CC(C)(C)C3)cc1OC` (stereo not given) was tested, and the “activity change, negative = inhibition” value was inactive: 4.88%. In the case of `COc1cc(C(=O)O/N=C2/C=CC(=O)C(C)=C2C)cc(OC)c1OC`, the Potency is reported as active: 3.55 µM. For `O=C(Nc1cccnc1Cl)c1ccc2c(Cl)c3c(nc2c1)CCC3`, the Potency was inconclusive: 5.62 µM [inhibitor, full curve]. `NS(=O)(=O)c1ccc(Nc2nc(-c3ccc(O)cc3O)cs2)cc1` was tested, and the “activity change, negative = inhibition” value was inactive: 18.2%. In the case of `Cc1ccc(NC(=O)CSc2nc(C)c(Cc3ccccc3)c(=O)[nH]2)cc1`, the Potency is reported as inconclusive: 35.5 µM [activator, single point]. In the case of `CCOc1ccc2oc(C(=O)N3CCN(Cc4ccccc4)CC3)c(C)c2c1`, the Potency is reported as inconclusive: 35.5 µM [activator, single point]. With `COc1ccc(OCc2nc3c4cc(OC)c(OC)cc4nc(=S)n3[nH]2)cc1` the Potency was active: 0.398 µM. `COc1ccc(OCC(O)Cn2c(=N)n(Cc3ccccc3)c3ccccc32)cc1` (stereo not given) was tested, and the Potency was inconclusive: 0.112 µM [inhibitor, full curve, poor fit]. With `CCC(=O)Nc1nc(C)c(C(=O)Nc2cccc(Cl)c2)s1` the Potency was inconclusive: 35.5 µM [activator, single point]. In the case of `CCOc1ccc(NC(=O)CCC(=O)NNC(=O)COc2ccccc2C)cc1`, the “activity change, negative = inhibition” value is reported as inactive: 0.902%. With `CCn1c(C)c(C(C)=O)c(N2CCCC2)nc1=S` the Potency was active: 7.94 µM. For `COc1ccc(CNC(=O)C2CC(=O)N(c3ccc(OCC(=O)N4C(C)CCCC4C)cc3)C2)cc1` (stereo not given), the Potency was inconclusive: 11.2 µM [activator, single point]. In the case of `Cc1cc(C)c(C)c(OCCCOc2cccc3cccnc23)c1`, the Potency is reported as inconclusive: 0.631 µM [inhibitor, single point].
% is set by controls: 0 for no effect and ±100 for the full control effect; potency is the fitted concentration of half-maximal effect.
Note: nearly all actives have a fitted effect of over 60% in size.
